The values that follow come from patent US20160032001A1 (APEXIGEN, published 2016).

Substitutions are numbered along the chain they refer to. Results are given in words; binding and its absence hold for the method and conditions named. Some binding calls cover weakened binding; strength is not graded here.

To fix the notation:
T1: RANKL expressed on the surface of 293 cells (UniProt O14788)
T1 sequence (looked up): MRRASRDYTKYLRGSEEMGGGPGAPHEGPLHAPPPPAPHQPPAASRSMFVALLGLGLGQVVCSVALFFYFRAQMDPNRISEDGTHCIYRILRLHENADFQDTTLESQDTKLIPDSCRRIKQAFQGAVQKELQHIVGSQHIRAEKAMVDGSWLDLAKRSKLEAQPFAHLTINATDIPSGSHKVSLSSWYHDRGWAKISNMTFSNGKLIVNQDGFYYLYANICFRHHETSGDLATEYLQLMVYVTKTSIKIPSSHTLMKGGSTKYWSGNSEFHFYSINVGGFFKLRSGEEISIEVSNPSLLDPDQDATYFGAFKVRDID

B1: clone 383 rabbit anti-RANKL antibody (antibody, V domains shown)
VH: QSLEESGGDLVKPGASLTLTCTASGFSFSRYVCWVRQAPGKGLEWIGCIAAGSSGYTYYASWAKGRLTISKTSSTTLTLQMTSLTVADTATYFCARSGDSYVGYFNLWGPGTLVTVSS
VL: IVMTQTPASVEAAVGGTVTIKCQASQNIYNYLAWYQQQPGQPPKLLIYSASNLASGVSSRFKGSGSGTEFTLTISDLECGDAATYYCQSYYDSSRISYGSAFGGGTEVVVK
B2: clone 210 rabbit anti-RANKL antibody (antibody, V domains shown)
VH: QSVKESGGGLVTPGGTLTLTCTASGFSLSNNAMSWVRQAPGKGLEWIGYIYPGGSPYYANWAKGRFTISRTSTTVDLKMTSLTTEDTATYFCARHVSDGGWYLYIWGPGTLVTVSL
VL: DMIQTPASVEVAVGGTVTINCQASQSIGSNLAWYQQKPGQPPKLLIYGASTLASGVPSRFKGSGSGTQFTFTISDVECTAAATYYCQQAYSISNVDNAFGGGTEVVVK
B3: clone 379 rabbit anti-RANKL antibody (antibody, V domains shown)
VH: QEQLKESGGGLVTPGGTLTLTCTASRFSLINIGMSWVRQAPGRGLEWIGYIYSGGSPYYANWAKGRFTISRTSTTVDLKMTSLTTEDTATYFCARHASDGGWYLDIWGPGTLVTVSL
VL: B2 VL with G48L, A53P, A80D, S91T, I92A
B4: clone 420 rabbit anti-RANKL antibody (antibody, V domains shown)
VH: QEQLKESGGGLVTPGGILTLTCTASGFSLRSNAMSWVRQAPGKGLEWIGYIYPGGAPHYASWAKGRFTISRNSTTVDLKMTSLTTEDTATYFCARHVSGGGWYLDIWGPGTLVTVSL
VL: B2 VL with A12G, S26N, L44F, P57S, Q68R, A80D, I92V, S93G
B5: clone 246 rabbit anti-RANKL antibody (antibody, V domains shown)
VH: QSVKESGGGLVTPGGTLTLTCTASGLSLSGNGMSWVRQAPGKGLEWIGYIYSGSSPYYASWAKGRFTISKTSSTTVDLKMTSLTTEDTATYFCARHTSGGGWYLDIWGPGTLVTVSL
VL: B2 VL with G48S, P57S, Q68D, F69Y, F71L, A80D, D96E, A98P
B6: clone 238 rabbit anti-RANKL antibody (antibody, V domains shown)
VH: B3 VH with R26G, I30N, N31T, I32N, G33A, R43K, D77H, R95S, A97T, D99G
VL: B2 VL with S26N, A49T, P57S, S65F, A80D, I92T, N94K, V95I
B7: clone 7 rabbit anti-RANKL antibody (antibody, V domains shown)
VH: QEQLKESGGGLVTPGGTLTLTCTASGFSLTTNGMSWVRQAPGKGLEWIGYIYSGGSPYYANWAKGRFTISKTSSTTVDLKMTSLTTEDTATYFCARHLSGGGWYLDIWGPGTLVTVSL
VL: B2 VL with I3T, S26N, P57S, A80D, A81P, A98P
B8: clone 318 rabbit anti-RANKL antibody (antibody, V domains shown)
VH: B7 VH with E2D, T30G, T31S, G55S, N61S, R96G, L98A, S99K
VL: B2 VL with I3T, E10S, V11A, A32G, P57S, Q68H, T70A, A80D, I92V, S93G
B9: clone 547 rabbit anti-RANKL antibody (antibody, V domains shown)
VH: B7 VH with T30S, T31S, G55S, N61S, T91K, L98V
VL: B2 VL with P41R, P57S, F60V, A80D
B10: clone 416 rabbit anti-RANKL antibody (antibody, V domains shown)
VH: B2 VH with A23V, N30R, A39T, P52S, G54S, Y104D, T113A
VL: B2 VL with A12V, I19F, S26N, G48S, A80D
B11: clone 220 rabbit anti-RANKL antibody (antibody, V domains shown)
VH: QSLEESGGRLVTPGTPLTLTCTVSGFSLSKYEINWVRQAPGKGLEWIGYIDVGSGTWYASWAKGRFTISKTSTTVALRITSPTTEDTATYFCSRQYNPMDLWGPGTLVTVSS
VL: DMTQTPASVEAAVGGTVTIKCQASQNIGSNLAWYQQKPGQRPKLLIYSASTLASGVPSRFKGSGSGTQFTLTISGVQCDDAATYYCQQGYSVGNVNNAFGGGTEVVVK
B12: clone 91 rabbit anti-RANKL antibody (antibody, V domains shown)
VH: QSLEESGGRLVKPDETLTLTCTVSGSSLYNYEINWVRQAPGKGLEWIGYIDVGSGTWYASWAKGRFTISKTSTTVDLKITSPTTEDTATYFCTRKYNPMDLWGPGTLVTVSS
VL: B11 VL with A11V, R41P, A49T, L52V, S65F, V92A, A98P
B13: clone 37 rabbit anti-RANKL antibody (antibody, V domains shown)
VH: QSVEESGGRLVTPGTPLTLTCTVSGFSLSNDVMSWVRQAPGKGLEWIGYIWSGGSPYYANWAKGRFTISKSSSTTVDLKITSPTTEDTAAYFCARGFGSSGLNIWGPGTLVTVSL
VL: B11 VL with A11V, N26S, R41S, T51I, V95I, N96D
B14: clone 327 rabbit anti-RANKL antibody (antibody, V domains shown)
VH: B11 VH
VL: B11 VL
B15: clone 256 rabbit anti-RANKL antibody (antibody, V domains shown)
VH: B11 VH
VL: B11 VL
B16: clone 480 rabbit anti-RANKL antibody (antibody, V domains shown)
VH: B11 VH with T15G, P16S, K30N, A76D, R78K, E85G, Q95S
VL: B11 VL with A11V
B17: clone 415 rabbit anti-RANKL antibody (antibody, V domains shown)
VH: B11 VH with L3V, T15G, P16S, K30N, I33M, A76D, R78K
VL: B11 VL with A11V
B18: clone 227 rabbit anti-RANKL antibody (antibody, V domains shown)
VH: B12 VH with S26F
VL: B11 VL with A11V, R41P, A49T, L52V, S65F, V92A, A98P
B19: clone 270 rabbit anti-RANKL antibody (antibody, V domains shown)
VH: B13 VH with N30S, E45D, S55R
VL: B11 VL with A11V, S29Y, R41P, S48G, G93S, V95I, N96D
B20: clone 191 rabbit anti-RANKL antibody (antibody, V domains shown)
VH: QSVEESGGRLVTPGTPLTLTCTVSGFSLYTNLINWVRQAPGKGLEWIGYINYGASAYYANWAKGRFTISQTSSTTVDLKMTSLTIEDTATYFCARGYGNDWDRLDLWGQGTLVTVSS
VL: IVMTQTPSPVSGAVGGTVTINCQASQSIGSNLAWYQQKPGQPPKLLIYSASILASGAPSRVSGSGYGTEFTLTISGVQCADAATYYCQQGYTTNADNIFGGGTEVVVE
B21: clone 388 rabbit anti-RANKL antibody (antibody, V domains shown)
VH: QSVEESGGRLVTPGTPLTLTCTVSGFSLSSGVVSWVRQAPGKGLEWIGYAWSGGPTYYANWAKGRFTISKSSTTVDLKITSPTTADTATYFCARGYNGMDPWGPGTLVTVSS
VL: DMTQTPASVEVAVGGTVTIKCQASQNIGSNLAWYQQKPGQPPKLLIYKASTLASGVPSRFRGSGSGTEFTLAISDLECADAATYYCQQGYTTKDVVNPFGGGTEVVVK
B22: clone 411 rabbit anti-RANKL antibody (antibody, V domains shown)
VH: B21 VH
VL: B21 VL
B23: clone 130 rabbit anti-RANKL antibody (antibody, V domains shown)
VH: B21 VH with P55A, N60S
VL: B21 VL with V95L
B24: clone EBI-51-11 rabbit anti-RANKL antibody (antibody, V domains shown)
VH: QSVEESGGRLITPGTPLTLTCTVSGFSLSTDVVSWVRQAPGTGLEWIGYTWSGGSTYYAIWAKGRFTISKTSSTTVDLKITSPTTEDTATYFCARGFNPFDPWGPGTLVTVSS
VL: DMTQTPASVSEPVGGTVTIKCQASQNIGSNLAWYQQKPGQRPKLLIYRASTLASGVSSRFKGSGSGTQFTLTISDLECADAATYYCQQGYSAGNVDKHVFGGGTEVVVK
B25: clone 193 rabbit anti-RANKL antibody (antibody, V domains shown)
VH: QSVEESGGRLVTPGTPLTLTCTFSGFSLSNNAINWVRQAPGKGLEWIGYTWSGGGTYCASWAKGRFTISKTSSTTVDLKMTSLTTEDTATYFCARAYDSEWDRLDLWGQGTLVTVSS
VL: VMTQTPASVSGPVGGTVTIKCQASQSIGSNLGWYQQKPGQPPKLLIFSASNLESGVPSRFKGSGSGTQFTLTISDLECDDAATYYCQQGYTTNNVLNAFAGGTEVVVK
B26: clone 299 rabbit anti-RANKL antibody (antibody, V domains shown)
VH: QSLEESGGRLVTPGTPLTLTCTVSGIDLSSSLMTWVRQAPGKGLEWIGYIWSGGAPFYASWAKGRFTISKTSSTTVDLKMTSLTTEDTATYFCAARYTDSGFDALDPWGPGTLVTVSS
VL: DMTQTPASVEAAVGGTVTIKCQASQSIGSYLSWYHQKPGQPPKLLIYRASTLASGVPSRFKGSGSGTQFTLTISDLECADAATYYCQQGYSANVDNAFGGGTEVVVK

The assay concerns the target T1, RANKL expressed on the surface of 293 cells. Kind of assay: flow cytometry, RANKL-transfected 293 cells. On the technique in general: A flow cytometer gives signals particle by particle.
For B1, the binding result is reported as “binds”.

Regarding B2, the binding entry is listed as “binds”.

For B3, the binding entry was “binds”.

B4: the binding entry is “binds”.

For the molecule B5, the binding result was “binds”.

In the case of B6, the binding entry is given as “binds”.

As to B7, the binding result was “binds”.

B8: the binding result is reported as “binds”.

As to B9, the binding result is on record as “binds”.

Regarding B10, the binding result was “binds”.

Regarding B11, the binding entry is listed as “binds”.

Regarding B12, the binding entry is on record as “binds”.

As for B13, the binding entry is “binds”.

As to B14, the binding result is reported as “binds”.

Turning to B15, the binding result is given as “binds”.

For the molecule B16, the binding entry is given as “binds”.

In the case of B17, the binding result is “binds”.

For B18, the binding entry is on record as “binds”.

B19: the binding entry is on record as “binds”.

Regarding B20, the binding entry is “binds”.

On to B21, for which the binding result is reported as “binds”.

Turning to B22, the binding entry was “binds”.

Turning to B23, the binding result is given as “binds”.

Take B24: the binding result is listed as “binds”.

In the case of B25, the binding entry is listed as “binds”.

With B26, the binding result is reported as “binds”.
